The source of these data is the supplement of paper PMC4604168 (melanoma cell lines).

This is one part of the list. Many values rest on one well or one pass, so single values are uncertain.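 Cells were imaged in 1,536-well plates, and nuclei stained with an antibody against cleaved PARP were counted against all DNA-stained nuclei to give the apoptosis fraction. Screening doses were chosen to leave most cells alive, and resting and induced cleaved-PARP levels differ strongly between cell lines.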

This experiment relates to C32. The experiment is described as follows: cleaved PARP positive nuclei fraction relative to DMSO control; melanoma cells; higher = more apoptosis. Particulars: library dose: low library concentration; 72 h.
`Nc1ncn([C@H]2C[C@H](O)[C@@H](CO)O2)c(=O)n1` [decitabine] + Cc1cc(N2CCOCC2)cc2[nH]c(-c3c(NC[C@@H](O)c4cccc(Cl)c4)cc[nH]c3=O)nc12 [BMS536924] (first compound 0.1 µM, partner dose 0.2 µM): the “cleaved PARP positive nuclei fraction” value came to 56%.
With `Cn1c(=O)n(-c2ccc(C(C)(C)C#N)cc2)c2c3cc(-c4cnc5ccccc5c4)ccc3ncc21` + NCC(=O)Nc1ccc(-n2nc(C(F)(F)F)cc2-c2ccc3c(ccc4ccccc43)c2)cc1 [OSU03012] (first compound 0.004 µM, partner dose 1 µM) the figure was 150%; with `CS(=O)(=O)CCNCc1ccc(-c2ccc3ncnc(Nc4ccc(OCc5cccc(F)c5)c(Cl)c4)c3c2)o1` [lapatinib] + O=C(Nc1cccc(Cl)c1)Nc1ncc(CCNc2ncnc3ccsc23)s1 [SNS314] (first compound 0.8 µM, partner dose 0.0008 µM), 71.5%.
Under `CN1CCN(c2ccc3nc(-c4c(N)c5c(F)cccc5[nH]c4=O)[nH]c3c2)CC1` [Dovitinib] + CN(C)S(=O)(=O)c1ccc2c(c1)/C(=C/c1cc3c([nH]1)CCCC3)C(=O)N2 [SU6656] (first compound 0.1 µM, partner dose 0.4 µM) stands 79.4%; under `C[C@@H](Oc1cc(-c2cnn(C3CCNCC3)c2)cnc1N)c1c(Cl)ccc(F)c1Cl` [Crizotinib] + Cn1cncc1[C@@](N)(c1ccc(Cl)cc1)c1ccc2c(c1)c(-c1cccc(Cl)c1)cc(=O)n2C [tipifarnib] (first compound 0.2 µM, partner dose 0.01 µM), 241%; under `CO[C@H]1C[C@@H]2CC[C@@H](C)[C@@](O)(O2)C(=O)C(=O)N2CCCC[C@H]2C(=O)O[C@H]([C@H](C)C[C@@H]2CC[C@@H](OCCO)[C@H](OC)C2)CC(=O)[C@H](C)/C=C(\C)[C@@H](O)[C@@H](OC)C(=O)[C@H](C)C[C@H](C)/C=C/C=C/C=C/1C` [everolimus] + O=C(Nc1cccc(Cl)c1)Nc1ncc(CCNc2ncnc3ccsc23)s1 [SNS314] (first compound 0.02 µM, partner dose 0.0008 µM), 56.1%.
Turning to `O=C(O)c1ccc2c(c1)nc(Nc1cccc(Cl)c1)c1ccncc12` + NC(=O)Nc1cc(-c2cccc(F)c2)sc1C(=O)N[C@H]1CCCNC1 [AZD7762] (first compound 0.4 µM, partner dose 0.02 µM), the “cleaved PARP positive nuclei fraction” value amounted to 232%.
Under `Cn1c(=O)n(-c2ccc(C(C)(C)C#N)cc2)c2c3cc(-c4cnc5ccccc5c4)ccc3ncc21` + O=C(O)c1ccc(-c2c[nH]c3ncc(-c4ccccc4)cc23)cc1C1CCCC1 [GSK650394] (first compound 0.004 µM, partner dose 0.16 µM) stands 82.6%; under `O=C(O)c1ccc2c(c1)nc(Nc1cccc(Cl)c1)c1ccncc12` + O=C(O)c1ccc(-c2c[nH]c3ncc(-c4ccccc4)cc23)cc1C1CCCC1 [GSK650394] (first compound 0.4 µM, partner dose 0.16 µM), 91.7%; under `CC(C)C[C@H](NC(=O)[C@H](Cc1ccccc1)NC(=O)c1cnccn1)B(O)O` [Bortezomib] + O=C(CCCCCCC(=O)Nc1ccccc1)NO [vorinostat] (first compound 0.001 µM, partner dose 0.08 µM), 65.2%.
`O=C(O)c1ccc2c(c1)nc(Nc1cccc(Cl)c1)c1ccncc12` + O=C(Nc1cccc(Cl)c1)Nc1ncc(CCNc2ncnc3ccsc23)s1 [SNS314] (first compound 0.4 µM, partner dose 0.0008 µM): the “cleaved PARP positive nuclei fraction” value came out at 96.8%.
`Nc1nc(F)nc2c1ncn2[C@@H]1O[C@H](CO)[C@@H](O)[C@@H]1O` [fludarabine] + C=CCn1c(=O)c2cnc(Nc3ccc(N4CCN(C)CC4)cc3)nc2n1-c1cccc(C(C)(C)O)n1 [MK1775] (first compound 0.2 µM, partner dose 0.02 µM): the “cleaved PARP positive nuclei fraction” value is 134%.
On to `Nc1ccn([C@@H]2O[C@H](CO)[C@@H](O)C2(F)F)c(=O)n1` [gemcitabine] + COc1cc(Nc2ncc(F)c(Nc3ccc4c(n3)NC(=O)C(C)(C)O4)n2)cc(OC)c1OC [Tamatinib] (first compound 0.0004 µM, partner dose 0.4 µM), for which the “cleaved PARP positive nuclei fraction” value came out at 142%.
With `Cn1c(=O)n(-c2ccc(C(C)(C)C#N)cc2)c2c3cc(-c4cnc5ccccc5c4)ccc3ncc21` + COc1cc2c(Oc3ccc4[nH]c(C)cc4c3F)ncnc2cc1OCCCN1CCCC1 [cediranib] (first compound 0.004 µM, partner dose 0.4 µM) the figure was 80.2%.
For `Cc1cc(Nc2cc(N3CCN(C)CC3)nc(/C=C/c3ccccc3)n2)n[nH]1` + NC(=O)Nc1cc(-c2cccc(F)c2)sc1C(=O)N[C@H]1CCCNC1 [AZD7762] (first compound 0.04 µM, partner dose 0.02 µM), the “cleaved PARP positive nuclei fraction” value came out at 113%.
As for `Nc1nc(F)nc2c1ncn2[C@@H]1O[C@H](CO)[C@@H](O)[C@@H]1O` [fludarabine] + O=C(Nc1cccc(Cl)c1)Nc1ncc(CCNc2ncnc3ccsc23)s1 [SNS314] (first compound 0.2 µM, partner dose 0.0008 µM), the “cleaved PARP positive nuclei fraction” value is 173%.
With `CS(=O)(=O)CCNCc1ccc(-c2ccc3ncnc(Nc4ccc(OCc5cccc(F)c5)c(Cl)c4)c3c2)o1` [lapatinib] + CN(NC(=O)CC(=O)NN(C)C(=S)c1ccccc1)C(=S)c1ccccc1 [STA4783] (first compound 0.8 µM, partner dose 0.006 µM) the figure was 178%; with `CC(C)C[C@H](NC(=O)[C@H](Cc1ccccc1)NC(=O)c1cnccn1)B(O)O` [Bortezomib] + CO[C@@H]1[C@H](N(C)C(=O)c2ccccc2)C[C@H]2O[C@]1(C)n1c3ccccc3c3c4c(c5c6ccccc6n2c5c31)C(=O)NC4 [Midostaurin] (first compound 0.001 µM, partner dose 0.08 µM), 65.9%.
Take `C[C@@H](Oc1cc(-c2cnn(C3CCNCC3)c2)cnc1N)c1c(Cl)ccc(F)c1Cl` [Crizotinib] + O=C(O)c1ccc(-c2c[nH]c3ncc(-c4ccccc4)cc23)cc1C1CCCC1 [GSK650394] (first compound 0.2 µM, partner dose 0.16 µM): the “cleaved PARP positive nuclei fraction” value was 137%.
For `CS(=O)(=O)CCNCc1ccc(-c2ccc3ncnc(Nc4ccc(OCc5cccc(F)c5)c(Cl)c4)c3c2)o1` [lapatinib] + NC(=O)Nc1cc(-c2cccc(F)c2)sc1C(=O)N[C@H]1CCCNC1 [AZD7762] (first compound 0.8 µM, partner dose 0.02 µM), the “cleaved PARP positive nuclei fraction” value was found to be 184%.
With `CNC(=O)c1cc(Oc2ccc(NC(=O)Nc3ccc(Cl)c(C(F)(F)F)c3)cc2)ccn1` [sorafenib] + NC(=O)Nc1cc(-c2cccc(F)c2)sc1C(=O)N[C@H]1CCCNC1 [AZD7762] (first compound 0.4 µM, partner dose 0.02 µM), the “cleaved PARP positive nuclei fraction” value is 51.9%.
In the case of `CN1CCN(c2ccc3nc(-c4c(N)c5c(F)cccc5[nH]c4=O)[nH]c3c2)CC1` [Dovitinib] + NCC(=O)Nc1ccc(-n2nc(C(F)(F)F)cc2-c2ccc3c(ccc4ccccc43)c2)cc1 [OSU03012] (first compound 0.1 µM, partner dose 1 µM), the “cleaved PARP positive nuclei fraction” value is 134%.
On to `C=C(c1ccc(C(=O)O)cc1)c1cc2c(cc1C)C(C)(C)CCC2(C)C` [Bexarotene] + NC(=O)Nc1cc(-c2cccc(F)c2)sc1C(=O)N[C@H]1CCCNC1 [AZD7762] (first compound 2 µM, partner dose 0.02 µM), for which the “cleaved PARP positive nuclei fraction” value is 182%.
With `Cn1c(=O)n(-c2ccc(C(C)(C)C#N)cc2)c2c3cc(-c4cnc5ccccc5c4)ccc3ncc21` + Cn1cncc1[C@@](N)(c1ccc(Cl)cc1)c1ccc2c(c1)c(-c1cccc(Cl)c1)cc(=O)n2C [tipifarnib] (first compound 0.004 µM, partner dose 0.01 µM) the figure was 131%; with `C[C@@H](Oc1cc(-c2cnn(C3CCNCC3)c2)cnc1N)c1c(Cl)ccc(F)c1Cl` [Crizotinib] + CN(NC(=O)CC(=O)NN(C)C(=S)c1ccccc1)C(=S)c1ccccc1 [STA4783] (first compound 0.2 µM, partner dose 0.006 µM), 153%.
With `CC(C)C[C@H](NC(=O)[C@H](Cc1ccccc1)NC(=O)c1cnccn1)B(O)O` [Bortezomib] + COc1cc2c(Oc3ccc4[nH]c(C)cc4c3F)ncnc2cc1OCCCN1CCCC1 [cediranib] (first compound 0.001 µM, partner dose 0.4 µM) the figure was 127%.
Under `Cc1cc(Nc2cc(N3CCN(C)CC3)nc(/C=C/c3ccccc3)n2)n[nH]1` + Cc1cc(N2CCOCC2)cc2[nH]c(-c3c(NC[C@@H](O)c4cccc(Cl)c4)cc[nH]c3=O)nc12 [BMS536924] (first compound 0.04 µM, partner dose 0.2 µM) stands 131%.
For `C[C@@H](Oc1cc(-c2cnn(C3CCNCC3)c2)cnc1N)c1c(Cl)ccc(F)c1Cl` [Crizotinib] + CC1(C)NC(=O)N(c2ccc([N+](=O)[O-])c(C(F)(F)F)c2)C1=O [nilutamide] (first compound 0.2 µM, partner dose 1 µM), the “cleaved PARP positive nuclei fraction” value worked out at 69.4%.
`Cn1c(=O)n(-c2ccc(C(C)(C)C#N)cc2)c2c3cc(-c4cnc5ccccc5c4)ccc3ncc21` + NC(=O)Nc1cc(-c2cccc(F)c2)sc1C(=O)N[C@H]1CCCNC1 [AZD7762] (first compound 0.004 µM, partner dose 0.02 µM): the “cleaved PARP positive nuclei fraction” value turned out to be 289%.
